From article PMC8898369
These are yes or no findings as the source states them, for the method shown. In cells and extracts the contact can be indirect. Some entries that bind do so weakly or less than the wild type.

Chains of the proteins cited; added tags and fusions are not shown. Residues count along the entry.
UniProt P16070, residues 21-742: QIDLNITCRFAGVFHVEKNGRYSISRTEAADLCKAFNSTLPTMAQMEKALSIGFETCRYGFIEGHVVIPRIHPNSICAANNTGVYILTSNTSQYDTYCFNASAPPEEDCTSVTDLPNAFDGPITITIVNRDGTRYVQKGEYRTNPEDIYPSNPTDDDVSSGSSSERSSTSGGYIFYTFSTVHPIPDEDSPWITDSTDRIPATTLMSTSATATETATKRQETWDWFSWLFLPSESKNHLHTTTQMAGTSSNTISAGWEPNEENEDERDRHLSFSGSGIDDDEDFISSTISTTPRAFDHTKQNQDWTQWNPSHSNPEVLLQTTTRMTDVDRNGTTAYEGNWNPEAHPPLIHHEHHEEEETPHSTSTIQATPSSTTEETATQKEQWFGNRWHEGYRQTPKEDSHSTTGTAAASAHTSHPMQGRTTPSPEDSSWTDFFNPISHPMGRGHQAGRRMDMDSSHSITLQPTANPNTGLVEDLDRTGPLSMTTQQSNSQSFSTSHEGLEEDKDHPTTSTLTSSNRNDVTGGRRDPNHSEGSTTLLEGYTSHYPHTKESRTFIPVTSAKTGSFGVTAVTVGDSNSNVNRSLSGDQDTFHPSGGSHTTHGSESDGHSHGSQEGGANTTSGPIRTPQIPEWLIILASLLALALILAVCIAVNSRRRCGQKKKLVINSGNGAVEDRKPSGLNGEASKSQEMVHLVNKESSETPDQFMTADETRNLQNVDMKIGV
UniProt P98066, residues 18-277: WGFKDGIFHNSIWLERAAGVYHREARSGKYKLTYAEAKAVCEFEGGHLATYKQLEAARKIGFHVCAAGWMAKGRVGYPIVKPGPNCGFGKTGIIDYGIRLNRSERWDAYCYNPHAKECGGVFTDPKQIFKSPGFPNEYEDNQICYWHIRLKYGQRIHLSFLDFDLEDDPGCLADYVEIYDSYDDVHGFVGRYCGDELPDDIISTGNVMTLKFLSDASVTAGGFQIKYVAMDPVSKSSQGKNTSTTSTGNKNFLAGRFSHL

Key:
[1] = molecular target: CD44 (human (endogenous in CRC cells HCT116, DLD1)) (UniProt P16070); test: co-IP; co-immunoprecipitation of CD44 and EGFR from CRC cells transiently transfected with control vector or TSG-6 overexpressing plasmid; bait, antibody and buffer not told in the main text
[2] = molecular target: CD44 (human (endogenous in CRC cells HCT116, DLD1)) (UniProt P16070); test: co-IP; co-immunoprecipitation of TSG-6 and CD44 from CRC cells; bait, antibody and buffer not told in the main text (methods in the Supplementary Information)

| binding [1] | binding [2] | Substance |
| --- | --- | --- |
| binds |  | EGFR (from UniProt P00533 25-1210) (receptor) |
|  | binds | Tumor necrosis factor α stimulated gene 6 (TSG-6) (from UniProt P98066 18-277) |
